Measurements from the supplement of paper PMC9233669.
Variants at the background level are over-represented here.

Legend:
biotinyl-Leu-oxazolone = assay: self-aminoacylation, catalytic enhancement (BLO) (fold over background); higher = more active; k-Seq, kA / k0A0; sequences stand for … in GGGAAUGGAUCCACAUCUACGAAUUC…UUCACUGCAGACUUGACGAAGCUG
Method in brief: (§1)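 Working in 50 μL HEPES/NaCl/KCl/MgCl2/CaCl2 buffer with 5% acetonitrile at pH 6.9–7.0, mutagenized RNA pools (0.43 μM; 21-nt variable region) were reacted with 2–1250 μM of each biotinyl-aminoacyl-oxazolone for 90 minutes at room temperature. Streptavidin capture followed, with quantification by triplicate qPCR and Illumina sequencing. Catalytic enhancement is reported as median kA over the uncatalyzed rate, the low-activity peak of a bimodal Gaussian fit to the data.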

biotinyl-Val-oxazolone = assay: self-aminoacylation, catalytic enhancement (BVO) (fold over background); higher = more active; k-Seq, kA / k0A0; sequences stand for … in GGGAAUGGAUCCACAUCUACGAAUUC…UUCACUGCAGACUUGACGAAGCUG
Method in brief: as §1

biotinyl-Ile-oxazolone = assay: self-aminoacylation, catalytic enhancement (BIO) (fold over background); higher = more active; k-Seq, kA / k0A0; sequences stand for … in GGGAAUGGAUCCACAUCUACGAAUUC…UUCACUGCAGACUUGACGAAGCUG
Method in brief: as §1

biotinyl-Phe-oxazolone = assay: self-aminoacylation, catalytic enhancement (BFO) (fold over background); higher = more active; k-Seq, kA / k0A0; sequences stand for … in GGGAAUGGAUCCACAUCUACGAAUUC…UUCACUGCAGACUUGACGAAGCUG
Method in brief: as §1

biotinyl-Trp-oxazolone = assay: self-aminoacylation, catalytic enhancement (BWO) (fold over background); higher = more active; k-Seq, kA / k0A0; sequences stand for … in GGGAAUGGAUCCACAUCUACGAAUUC…UUCACUGCAGACUUGACGAAGCUG
Method in brief: as §1

biotinyl-Met-oxazolone = assay: self-aminoacylation, catalytic enhancement (BMO) (fold over background); higher = more active; k-Seq, kA / k0A0; sequences stand for … in GGGAAUGGAUCCACAUCUACGAAUUC…UUCACUGCAGACUUGACGAAGCUG
Method in brief: as §1

| Sequence | self-aminoacylation (biotinyl-Leu-oxazolone) | self-aminoacylation (biotinyl-Val-oxazolone) | self-aminoacylation (biotinyl-Ile-oxazolone) | self-aminoacylation (biotinyl-Phe-oxazolone) | self-aminoacylation (biotinyl-Trp-oxazolone) | self-aminoacylation (biotinyl-Met-oxazolone) |
| --- | --- | --- | --- | --- | --- | --- |
| AUUCACCUAGUUCAUCGUGUG [Fam2.2 aminoacylation ribozyme variant] | 1.25 | 1.11 | 0.937 | 4.05 | 1.1 | 1.2 |
| AUUCACCUAUGGCAUCGGGUG [Fam2.2 aminoacylation ribozyme variant] | 2.84 | 1.94 | 1.96 | 11.9 | 2.25 | 2.41 |
| AUUCACCUCGGACAUCGGGUG [Fam2.2 aminoacylation ribozyme variant] | 6.78 | 4.74 | 3.09 | 40.1 | 5.08 | 4.76 |
| AUUCACCUGGGUCAUGGGGUG [Fam2.2 aminoacylation ribozyme variant] | 9.15 | 4.9 | 4.05 | 51.6 | 6.16 | 6.65 |
| AUUCACCUGGUUCAUCGGGUG [Fam2.2 aminoacylation ribozyme variant] | 3.19 | 3.1 | 2.42 | 15.2 | 3.62 | 3.08 |
| AUUCACCUUGGUCAUCGUGUG [Fam2.2 aminoacylation ribozyme variant] | 0.855 | 0.776 | 0.697 | 0.415 | 0.477 | 0.732 |
| AUUCACUUAGGUCAUAGGGUG [Fam2.2 aminoacylation ribozyme variant] | 2.08 | 1.29 | 1.37 | 3.24 | 1.85 | 1.82 |
| AUUCACUUAGGUCGUCGGGUG [Fam2.2 aminoacylation ribozyme variant] | 1.85 | 1.63 | 1.58 | 4.92 | 1.35 | 1.35 |
| AUUCAGCUAGGUCAUCAGGUG [Fam2.2 aminoacylation ribozyme variant] | 2.39 | 2.04 | 1.63 | 8.1 | 2.09 | 2.38 |
| AUUCCCCUAGGUCCUCGGGUG [Fam2.2 aminoacylation ribozyme variant] | 37.9 | 17.1 | 19.6 | 241 | 24.6 | 26.9 |
| AUUCGCUUAGGUCAUCGGGUG [Fam2.2 aminoacylation ribozyme variant] | 8 | 4.24 | 4.11 | 52.5 | 6.47 | 7.02 |
| AUUGACCUAGGUCAUCAGGUG [Fam2.2 aminoacylation ribozyme variant] | 1.33 | 1.4 | 1.37 | 1.64 | 1.25 | 1.56 |
| AUUGACCUAGGUGAUCGGGUG [Fam2.2 aminoacylation ribozyme variant] | 5.78 | 3.78 | 4.21 | 25.9 | 6.18 | 4.22 |
| AUUGCCCUGGUCAUCCAGUGA [Fam2.1 aminoacylation ribozyme variant] | 7.38 | 4.02 | 3.7 | 44.4 | 7.66 | 6.42 |
| AUUUACCUAGAUCAUCGGGUG [Fam2.2 aminoacylation ribozyme variant] | 3 | 1.88 | 2.17 | 12.3 | 3.38 | 2.35 |
| AUUUCCCUGGUCAUCGAGAGA [Fam2.1 aminoacylation ribozyme variant] | 1.1 | 1.27 | 1.2 | 1.31 | 0.74 | 0.896 |
| CAACACAUCAAGCAAUCGGUC [Fam1B.1 aminoacylation ribozyme variant] | 0.76 | 0.946 | 0.797 | 1.22 | 0.767 | 0.749 |
| CAACACUUCAUGCAAUCGGUC [Fam1B.1 aminoacylation ribozyme variant] | 0.949 | 0.902 | 0.942 | 1.01 | 0.761 | 0.874 |
| CAACUUCAAACAAUCGGUAUG [Fam1A.1 aminoacylation ribozyme variant] | 1.61 | 1.04 | 1.21 | 33.3 | 21 | 1.31 |
| CAGUUGGCUAAUAGUCGCAAG [Fam3.1 aminoacylation ribozyme variant] | 1.46 | 1.39 | 1.22 | 1.57 | 1.97 | 1.06 |
| CAGUUUGCUAAUACUCGCAAG [Fam3.1 aminoacylation ribozyme variant] | 0.945 | 0.714 | 0.873 | 1.04 | 1.17 | 0.865 |
| CAGUUUGCUAAUUGUCGCAAG [Fam3.1 aminoacylation ribozyme variant] | 1.85 | 1.52 | 1.44 | 1.16 | 1.25 | 1.46 |
| CCAAACUCCAAGCAAUCGGUC [Fam1B.1 aminoacylation ribozyme variant] | 1.14 | 1.42 | 1.15 | 1.55 | 1.22 | 0.811 |
| CCAAACUUCAAGCAACCGGUC [Fam1B.1 aminoacylation ribozyme variant] | 0.928 | 1.5 | 1.18 | 1.29 | 1.18 | 1.07 |
| CCAAACUUCAAGCAAUCGCUC [Fam1B.1 aminoacylation ribozyme variant] | 1.14 | 1.39 | 1.28 | 0.675 | 1.51 | 1.3 |
| CCAAACUUCAAGCAAUCGGUA [Fam1B.1 aminoacylation ribozyme variant] | 1.1 | 1.11 | 1.23 | 1.06 | 1.14 | 0.992 |

| Sequence | self-aminoacylation (biotinyl-Leu-oxazolone) | self-aminoacylation (biotinyl-Val-oxazolone) | self-aminoacylation (biotinyl-Ile-oxazolone) | self-aminoacylation (biotinyl-Phe-oxazolone) | self-aminoacylation (biotinyl-Trp-oxazolone) | self-aminoacylation (biotinyl-Met-oxazolone) |
| --- | --- | --- | --- | --- | --- | --- |
| CCAAACUUCAAGCUAUCGGUC [Fam1B.1 aminoacylation ribozyme variant] | 1.02 | 1.26 | 1.24 | 0.83 | 0.978 | 0.885 |
| CCAAUUCAAACAAUCGGUCUG [Fam1A.1 aminoacylation ribozyme variant] | 1.16 | 1.11 | 1.11 | 6.78 | 5.22 | 1.02 |
| CCACAAAUCAAGCAAUCGGUC [Fam1B.1 aminoacylation ribozyme variant] | 0.937 | 1.17 | 1.22 | 1.01 | 0.793 | 0.882 |
| CCACAAUACAAGCAAUCGGUC [Fam1B.1 aminoacylation ribozyme variant] | 0.881 | 1.07 | 1.07 | 0.969 | 0.568 | 0.822 |
| CCACAAUUCAAGCAAACGGUC [Fam1B.1 aminoacylation ribozyme variant] | 0.788 | 1.12 | 0.92 | 1.17 | 1.01 | 0.881 |
| CCACAAUUCAAGCAAUCCGUC [Fam1B.1 aminoacylation ribozyme variant] | 1.13 | 1.36 | 1.51 | 0.879 | 1.03 | 1.32 |
| CCACAAUUCAAGCAGUCGGUC [Fam1B.1 aminoacylation ribozyme variant] | 1.17 | 1.22 | 1.36 | 1.06 | 0.925 | 1.11 |
| CCACAAUUCUAGCAAUCGGUC [Fam1B.1 aminoacylation ribozyme variant] | 1.22 | 1.41 | 1.53 | 1.39 | 0.893 | 1.36 |
| CCACACAUCAAGCAAUCCGUC [Fam1B.1 aminoacylation ribozyme variant] | 0.861 | 1.1 | 1.21 | 0.79 | 1.09 | 0.977 |
| CCACACCUCAAGCAAACGGUC [Fam1B.1 aminoacylation ribozyme variant] | 0.804 | 0.853 | 0.838 | 1.56 | 0.884 | 0.655 |
| CCACACCUCAAGCAAUCCGUC [Fam1B.1 aminoacylation ribozyme variant] | 1.24 | 1.57 | 1.41 | 1.25 | 0.678 | 1.02 |
| CCACACCUCAAGCAAUCGGAC [Fam1B.1 aminoacylation ribozyme variant] | 0.797 | 1.02 | 1.1 | 0.453 | 0.428 | 0.89 |
| CCACACCUCAAGCACUCGGUC [Fam1B.1 aminoacylation ribozyme variant] | 1.07 | 1.9 | 1.29 | 1.51 | 1.29 | 1.33 |
| CCACACGUCAAGCUAUCGGUC [Fam1B.1 aminoacylation ribozyme variant] | 1.22 | 1.79 | 1.04 | 0.826 | 1.18 | 1.21 |
| CCACACGUCCAGCAAUCGGUC [Fam1B.1 aminoacylation ribozyme variant] | 1.18 | 1.92 | 1.38 | 0.691 | 1.18 | 1.28 |
| CCACACUACAAGCAAUAGGUC [Fam1B.1 aminoacylation ribozyme variant] | 0.437 | 0.738 | 0.628 | 1.28 | 0.54 | 0.402 |
| CCACACUACAAGCAAUCGAUC [Fam1B.1 aminoacylation ribozyme variant] | 0.441 | 0.531 | 0.46 | 0.798 | 0.543 | 0.376 |
| CCACACUACCAGCAAUCGGUC [Fam1B.1 aminoacylation ribozyme variant] | 1.01 | 1.38 | 1.27 | 1.4 | 1.08 | 0.916 |
| CCACACUACGAGCAAUCGGUC [Fam1B.1 aminoacylation ribozyme variant] | 1.17 | 1.16 | 1.01 | 0.95 | 0.666 | 0.892 |
| CCACACUCCAAGCAAUCCGUC [Fam1B.1 aminoacylation ribozyme variant] | 0.843 | 1.34 | 1.63 | 1.39 | 1.51 | 1.13 |
| CCACACUCCAAGCAAUCGUUC [Fam1B.1 aminoacylation ribozyme variant] | 0.477 | 1 | 0.967 | 1.19 | 0.617 | 0.663 |
| CCACACUCCAAGCAAUGGGUC [Fam1B.1 aminoacylation ribozyme variant] | 0.795 | 0.971 | 0.918 | 0.471 | 0.728 | 0.608 |
| CCACACUCCAAGGAAUCGGUC [Fam1B.1 aminoacylation ribozyme variant] | 1.08 | 1.31 | 1.35 | 1.46 | 1.34 | 1.32 |
| CCACACUGCAAACAAUCGGUC [Fam1B.1 aminoacylation ribozyme variant] | 1.01 | 1.25 | 1.22 | 1.17 | 0.811 | 0.939 |
| CCACACUGCAAGCAAUCGGAC [Fam1B.1 aminoacylation ribozyme variant] | 1.04 | 1.23 | 1.31 | 0.851 | 0.814 | 1.76 |
